Assay results from PMC13295548.
Results are given in words; binding and its absence hold for the method and conditions named. In cells and extracts the contact can be indirect. Some binding calls cover weakened binding; strength is not graded here. Sequences can lack the tags named with a protein.

T1: FLAG-tagged miP-FERMT3 fusion protein (human)
T1 sequence: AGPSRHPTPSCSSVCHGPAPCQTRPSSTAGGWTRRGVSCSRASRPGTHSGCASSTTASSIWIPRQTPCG


Biological target: T1, FLAG-tagged miP-FERMT3 fusion protein (human)
Assay: co-IP; FLAG-miP-FERMT3 precipitated with anti-FLAG affinity gel from endothelial cell lysates (500 µg, overnight; 50 mmol/L Tris/HCl pH 7.5, 150 mmol/L NaCl, 1% NP-40); immunoblotting for TRIM8 and PSMD9; EGFP-expressing cells as control

binding | Binder
binds | 26S proteasome non-ATPase regulatory subunit 9 (protein, UniProt O00233 1-223) MSDEEARQSGGSSQAGVVTVSDVQELMRRKEEIEAQIKANYDVLESQKGIGMNEPLVDCEGYPRSDVDLYQVRTARHNIICLQNDHKAVMKQVEEALHQLHARDKEKQARDMAEAHKEAMSRKLGQSESQGPPRAFAKVNSISPGSPASIAGLQVDDEIVEFGSVNTQNFQSLHNIGSVVQHSEGKPLNVTVIRRGEKHQLRLVPTRWAGKGLLGCNIIPLQR
binds | tripartite motif containing 8 (protein, UniProt Q9BZR9 1-551) MAENWKNCFEEELICPICLHVFVEPVQLPCKHNFCRGCIGEAWAKDSGLVRCPECNQAYNQKPGLEKNLKLTNIVEKFNALHVEKPPAALHCVFCRRGPPLPAQKVCLRCEAPCCQSHVQTHLQQPSTARGHLLVEADDVRAWSCPQHNAYRLYHCEAEQVAVCQYCCYYSGAHQGHSVCDVEIRRNEIRKMLMKQQDRLEEREQDIEDQLYKLESDKRLVEEKVNQLKEEVRLQYEKLHQLLDEDLRQTVEVLDKAQAKFCSENAAQALHLGERMQEAKKLLGSLQLLFDKTEDVSFMKNTKSVKILMDRTQTCTSSSLSPTKIGHLNSKLFLNEVAKKEKQLRKMLEGPFSTPVPFLQSVPLYPCGVSSSGAEKRKHSTAFPEASFLETSSGPVGGQYGAAGTASGEGQSGQPLGPCSSTQHLVALPGGAQPVHSSPVFPPSQYPNGSAAQQPMLPQYGGRKILVCSVDNCYCSSVANHGGHQPYPRSGHFPWTVPSQEYSHPLPPTPSVPQSLPSLAVRDWLDASQQPGHQDFYRVYGQPSTKHYVTS
